Results from ChEMBL document CHEMBL1121902 (J Med Chem, 1981).

Experiments:
Conditions in all cases: Canis lupus familiaris, read-out: pA2 app (converted)
Canis familiaris [1] = assay: Compound was tested for its ability to block isoproterenol-induced increases in heart rate(HR) in anesthetized dogs.
Canis familiaris [2] = assay: Compound was tested for its ability to block isoproterenol-induced vasodilation in anesthetized dogs.
Canis familiaris [3] = assay: Compound was tested for its ability to block isoproterenol-induced contractile force in anesthetized dogs.

Q: With CC(C)NCC(O)COc1cccc2ccccc12 (stereo not drawn) [PROPRANOLOL] as the compound, how does the Kb (Canis familiaris [1]) read?
A: 37.2 nM

Q: What about the Kb (Canis familiaris [2]) of the same compound?
A: 11.2 nM

Q: What about the Kb (Canis familiaris [3]) of the same compound?
A: 25.1 nM
